# ± gives the standard deviation of the averaged measurements. The list shows a part of the results, in another mix than the full data.
# By UniProt entry, the sequences of proteins in these tests, tags left out. Where a name states a change or a piece, a line headed by the entry shows the natural chain unless it says otherwise.
# UniProt Q14493, whole entry, looked up: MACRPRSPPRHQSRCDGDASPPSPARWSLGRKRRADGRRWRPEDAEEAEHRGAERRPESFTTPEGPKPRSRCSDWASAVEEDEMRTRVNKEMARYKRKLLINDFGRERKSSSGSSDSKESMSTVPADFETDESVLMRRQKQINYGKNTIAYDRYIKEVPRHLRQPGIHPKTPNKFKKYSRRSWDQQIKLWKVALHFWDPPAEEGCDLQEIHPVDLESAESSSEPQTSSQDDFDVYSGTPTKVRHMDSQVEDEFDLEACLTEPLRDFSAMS
# UniProt P07766, whole entry: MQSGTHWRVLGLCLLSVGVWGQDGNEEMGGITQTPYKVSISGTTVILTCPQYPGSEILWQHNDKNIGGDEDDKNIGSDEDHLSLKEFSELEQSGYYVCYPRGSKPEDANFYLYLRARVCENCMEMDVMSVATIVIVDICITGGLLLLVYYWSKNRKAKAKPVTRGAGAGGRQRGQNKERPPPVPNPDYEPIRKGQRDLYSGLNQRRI
# UniProt Q7Z589: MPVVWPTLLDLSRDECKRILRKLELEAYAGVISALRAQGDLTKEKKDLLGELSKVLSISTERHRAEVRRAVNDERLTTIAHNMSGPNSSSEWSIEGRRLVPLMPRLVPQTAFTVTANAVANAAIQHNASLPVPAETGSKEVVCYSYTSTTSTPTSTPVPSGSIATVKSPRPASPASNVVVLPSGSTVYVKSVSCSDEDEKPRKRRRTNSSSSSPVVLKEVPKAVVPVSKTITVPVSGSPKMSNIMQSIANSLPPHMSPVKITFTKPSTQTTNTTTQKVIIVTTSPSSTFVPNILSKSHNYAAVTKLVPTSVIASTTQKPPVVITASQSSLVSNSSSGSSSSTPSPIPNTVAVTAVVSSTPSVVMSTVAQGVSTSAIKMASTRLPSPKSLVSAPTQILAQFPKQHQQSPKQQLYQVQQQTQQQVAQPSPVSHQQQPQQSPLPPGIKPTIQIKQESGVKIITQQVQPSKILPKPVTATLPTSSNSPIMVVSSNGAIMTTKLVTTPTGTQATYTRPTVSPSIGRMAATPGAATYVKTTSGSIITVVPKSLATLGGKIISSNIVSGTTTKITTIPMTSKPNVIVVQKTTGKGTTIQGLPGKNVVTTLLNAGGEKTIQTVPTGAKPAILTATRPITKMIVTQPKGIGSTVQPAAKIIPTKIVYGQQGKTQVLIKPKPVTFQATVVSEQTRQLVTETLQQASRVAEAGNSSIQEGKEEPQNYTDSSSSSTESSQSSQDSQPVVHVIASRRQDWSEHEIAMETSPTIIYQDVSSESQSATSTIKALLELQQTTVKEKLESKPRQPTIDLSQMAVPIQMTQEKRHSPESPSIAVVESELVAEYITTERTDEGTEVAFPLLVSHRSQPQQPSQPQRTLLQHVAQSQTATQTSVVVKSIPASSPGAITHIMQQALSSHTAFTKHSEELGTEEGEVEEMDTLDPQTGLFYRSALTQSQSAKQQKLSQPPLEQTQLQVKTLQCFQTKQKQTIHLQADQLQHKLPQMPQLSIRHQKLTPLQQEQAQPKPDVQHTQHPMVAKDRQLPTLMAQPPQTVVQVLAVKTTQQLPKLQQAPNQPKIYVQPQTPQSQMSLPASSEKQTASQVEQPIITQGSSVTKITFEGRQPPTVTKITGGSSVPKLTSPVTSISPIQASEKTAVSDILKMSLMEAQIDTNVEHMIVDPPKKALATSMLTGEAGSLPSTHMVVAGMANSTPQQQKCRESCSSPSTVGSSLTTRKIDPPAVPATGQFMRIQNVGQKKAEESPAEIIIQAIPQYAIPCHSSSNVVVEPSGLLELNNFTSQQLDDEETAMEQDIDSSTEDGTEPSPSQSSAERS
# UniProt Q9Y4F9: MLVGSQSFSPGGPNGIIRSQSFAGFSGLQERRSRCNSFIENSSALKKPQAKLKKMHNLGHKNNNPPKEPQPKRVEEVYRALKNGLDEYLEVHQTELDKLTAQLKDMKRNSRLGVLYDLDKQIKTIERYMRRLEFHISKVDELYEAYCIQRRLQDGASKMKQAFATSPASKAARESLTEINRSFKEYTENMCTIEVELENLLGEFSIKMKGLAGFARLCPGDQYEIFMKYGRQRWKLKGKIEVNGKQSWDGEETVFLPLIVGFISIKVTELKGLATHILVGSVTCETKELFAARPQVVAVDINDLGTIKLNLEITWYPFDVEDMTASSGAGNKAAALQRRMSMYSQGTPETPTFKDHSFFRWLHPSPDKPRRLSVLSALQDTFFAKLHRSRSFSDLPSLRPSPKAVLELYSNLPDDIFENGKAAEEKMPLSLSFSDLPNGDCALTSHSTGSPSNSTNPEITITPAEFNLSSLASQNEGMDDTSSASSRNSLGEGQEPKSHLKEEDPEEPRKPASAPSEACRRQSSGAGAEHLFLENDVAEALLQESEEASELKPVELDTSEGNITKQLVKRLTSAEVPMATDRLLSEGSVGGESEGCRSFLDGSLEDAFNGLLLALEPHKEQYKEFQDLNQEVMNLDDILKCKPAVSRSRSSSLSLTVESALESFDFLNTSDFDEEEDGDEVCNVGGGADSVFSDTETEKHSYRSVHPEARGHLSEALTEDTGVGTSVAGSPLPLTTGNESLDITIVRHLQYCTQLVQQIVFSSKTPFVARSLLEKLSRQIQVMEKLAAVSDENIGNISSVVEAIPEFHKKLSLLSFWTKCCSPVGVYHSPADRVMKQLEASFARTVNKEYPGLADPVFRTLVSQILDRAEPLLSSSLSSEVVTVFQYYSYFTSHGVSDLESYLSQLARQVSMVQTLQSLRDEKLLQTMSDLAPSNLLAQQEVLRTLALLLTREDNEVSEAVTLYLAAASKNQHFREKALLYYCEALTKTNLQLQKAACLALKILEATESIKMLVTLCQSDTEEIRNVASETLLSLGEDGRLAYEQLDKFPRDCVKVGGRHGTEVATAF
# UniProt Q9NUJ3: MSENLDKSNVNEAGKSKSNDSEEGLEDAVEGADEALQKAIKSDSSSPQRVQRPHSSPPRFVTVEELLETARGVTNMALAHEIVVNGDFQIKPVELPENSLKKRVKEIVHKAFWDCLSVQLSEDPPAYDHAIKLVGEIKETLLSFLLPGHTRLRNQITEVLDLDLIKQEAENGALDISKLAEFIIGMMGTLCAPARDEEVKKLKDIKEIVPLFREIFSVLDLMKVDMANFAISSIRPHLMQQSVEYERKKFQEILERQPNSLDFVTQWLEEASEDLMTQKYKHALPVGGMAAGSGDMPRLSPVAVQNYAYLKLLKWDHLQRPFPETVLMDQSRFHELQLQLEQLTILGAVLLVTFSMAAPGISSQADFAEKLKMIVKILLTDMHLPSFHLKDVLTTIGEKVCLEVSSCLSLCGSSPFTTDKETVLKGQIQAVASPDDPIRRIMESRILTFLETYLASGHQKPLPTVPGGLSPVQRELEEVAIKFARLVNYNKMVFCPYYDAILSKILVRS
# UniProt Q96C57: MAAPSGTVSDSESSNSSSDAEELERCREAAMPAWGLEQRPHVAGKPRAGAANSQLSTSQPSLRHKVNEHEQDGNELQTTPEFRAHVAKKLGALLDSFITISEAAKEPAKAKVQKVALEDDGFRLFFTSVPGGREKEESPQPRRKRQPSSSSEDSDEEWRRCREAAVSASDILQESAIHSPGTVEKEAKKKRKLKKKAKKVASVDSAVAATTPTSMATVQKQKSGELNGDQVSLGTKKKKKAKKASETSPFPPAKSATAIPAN
# UniProt Q15843, whole entry: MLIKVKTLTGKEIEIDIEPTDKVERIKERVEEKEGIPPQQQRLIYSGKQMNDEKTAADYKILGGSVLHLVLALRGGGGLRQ
# UniProt P19404, whole entry: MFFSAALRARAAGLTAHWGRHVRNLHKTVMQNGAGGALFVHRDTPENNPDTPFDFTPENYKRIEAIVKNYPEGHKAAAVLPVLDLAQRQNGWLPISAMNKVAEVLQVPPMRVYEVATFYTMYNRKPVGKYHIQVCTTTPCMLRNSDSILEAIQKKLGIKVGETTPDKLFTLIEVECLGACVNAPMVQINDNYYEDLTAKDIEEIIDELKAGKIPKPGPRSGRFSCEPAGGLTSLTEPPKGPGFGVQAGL
# UniProt E9PAV3, whole entry, looked up: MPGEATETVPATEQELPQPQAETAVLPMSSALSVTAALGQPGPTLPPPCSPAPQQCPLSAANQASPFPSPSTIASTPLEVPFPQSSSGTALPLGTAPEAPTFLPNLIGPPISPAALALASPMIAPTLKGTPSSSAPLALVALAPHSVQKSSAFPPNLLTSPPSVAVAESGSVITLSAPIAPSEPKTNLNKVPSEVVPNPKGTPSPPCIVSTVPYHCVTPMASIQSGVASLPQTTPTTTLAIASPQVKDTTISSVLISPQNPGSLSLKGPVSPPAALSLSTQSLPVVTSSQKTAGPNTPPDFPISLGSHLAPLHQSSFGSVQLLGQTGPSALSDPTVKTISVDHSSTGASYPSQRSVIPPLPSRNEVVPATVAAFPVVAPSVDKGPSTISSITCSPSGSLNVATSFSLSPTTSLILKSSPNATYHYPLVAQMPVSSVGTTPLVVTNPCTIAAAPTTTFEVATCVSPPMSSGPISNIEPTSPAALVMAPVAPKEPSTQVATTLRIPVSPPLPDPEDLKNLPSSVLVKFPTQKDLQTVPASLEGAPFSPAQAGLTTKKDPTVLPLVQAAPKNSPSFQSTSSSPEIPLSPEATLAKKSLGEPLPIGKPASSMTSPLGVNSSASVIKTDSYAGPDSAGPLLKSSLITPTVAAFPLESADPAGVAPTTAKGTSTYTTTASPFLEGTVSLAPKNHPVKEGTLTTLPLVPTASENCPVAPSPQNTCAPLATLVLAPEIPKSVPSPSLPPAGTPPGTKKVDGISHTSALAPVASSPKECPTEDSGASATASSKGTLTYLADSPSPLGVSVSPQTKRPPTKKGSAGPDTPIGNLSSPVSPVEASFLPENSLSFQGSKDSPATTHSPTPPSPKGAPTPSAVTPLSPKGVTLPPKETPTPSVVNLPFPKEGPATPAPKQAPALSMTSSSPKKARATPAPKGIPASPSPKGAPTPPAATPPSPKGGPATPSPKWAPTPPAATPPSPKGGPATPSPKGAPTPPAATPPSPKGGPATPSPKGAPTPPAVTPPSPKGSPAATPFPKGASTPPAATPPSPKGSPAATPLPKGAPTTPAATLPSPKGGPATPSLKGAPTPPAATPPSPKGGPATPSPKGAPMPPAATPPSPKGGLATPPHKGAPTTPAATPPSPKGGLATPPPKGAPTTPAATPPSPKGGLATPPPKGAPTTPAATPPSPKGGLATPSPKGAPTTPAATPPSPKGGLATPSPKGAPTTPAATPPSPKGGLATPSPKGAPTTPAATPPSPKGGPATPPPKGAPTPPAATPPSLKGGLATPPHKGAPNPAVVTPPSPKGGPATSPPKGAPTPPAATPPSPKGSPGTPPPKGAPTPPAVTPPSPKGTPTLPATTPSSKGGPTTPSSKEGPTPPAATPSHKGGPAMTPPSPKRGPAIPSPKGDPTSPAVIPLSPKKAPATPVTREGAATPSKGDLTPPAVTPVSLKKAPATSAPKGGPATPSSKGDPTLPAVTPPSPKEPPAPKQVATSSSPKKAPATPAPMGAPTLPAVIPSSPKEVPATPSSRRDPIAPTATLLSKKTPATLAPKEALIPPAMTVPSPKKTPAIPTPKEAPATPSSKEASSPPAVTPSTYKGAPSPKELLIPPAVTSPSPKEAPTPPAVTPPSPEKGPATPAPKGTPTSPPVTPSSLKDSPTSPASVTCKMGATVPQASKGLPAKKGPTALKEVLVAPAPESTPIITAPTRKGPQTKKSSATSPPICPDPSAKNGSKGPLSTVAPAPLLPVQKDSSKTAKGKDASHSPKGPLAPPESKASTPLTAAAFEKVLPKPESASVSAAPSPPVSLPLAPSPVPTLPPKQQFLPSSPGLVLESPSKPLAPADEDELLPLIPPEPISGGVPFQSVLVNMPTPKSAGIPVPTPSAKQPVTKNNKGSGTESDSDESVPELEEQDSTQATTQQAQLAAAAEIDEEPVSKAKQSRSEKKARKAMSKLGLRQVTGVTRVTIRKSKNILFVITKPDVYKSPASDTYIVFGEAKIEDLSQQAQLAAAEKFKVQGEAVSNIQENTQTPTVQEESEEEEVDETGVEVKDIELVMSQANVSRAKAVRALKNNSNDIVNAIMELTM
# UniProt Q15629: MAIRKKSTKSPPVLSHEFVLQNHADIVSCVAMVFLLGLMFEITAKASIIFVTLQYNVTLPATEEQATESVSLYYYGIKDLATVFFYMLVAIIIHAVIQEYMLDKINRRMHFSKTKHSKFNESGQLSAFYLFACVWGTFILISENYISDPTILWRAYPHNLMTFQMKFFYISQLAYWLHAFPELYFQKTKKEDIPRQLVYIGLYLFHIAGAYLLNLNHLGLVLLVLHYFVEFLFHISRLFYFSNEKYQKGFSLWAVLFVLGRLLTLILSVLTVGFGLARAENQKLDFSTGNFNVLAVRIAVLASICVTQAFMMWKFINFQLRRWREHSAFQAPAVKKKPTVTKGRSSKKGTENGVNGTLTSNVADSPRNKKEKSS
# Compound: Nc1ncnc2c1ncn2[C@@H]1O[C@H](COP(=O)(O)OP(=O)(O)OP(=O)(O)O)[C@@H](O)[C@H]1O [adenosine triphosphate]
# Test: NP40-soluble protein abundance relative to vehicle (solubility fold change) (ratio); higher = more soluble protein in presence of ATP
# Method in brief: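 In three independent experiments, Jurkat crude lysate made by Dounce homogenisation was treated for 10 min at room temperature and then 3 min at 37 °C with eight concentrations ranging from 0.1 to 10 mM. It was then solubilised with 0.8% NP40 plus benzonase for 60 min at 4 °C and ultracentrifuged. The supernatant was TMT-labelled for LC-MS/MS, and each value is the fold change against the detergent-processed vehicle for the same replicate, using vsn-normalised intensities.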
Target,NP40-soluble protein abundance (concentration: 1mM),NP40-soluble protein abundance (concentration: 2mM),NP40-soluble protein abundance (concentration: 4mM),NP40-soluble protein abundance (concentration: 6mM),NP40-soluble protein abundance (concentration: 8mM),NP40-soluble protein abundance (concentration: 10mM)
E9PF32 and related entries (UniProt A2RUS2),1.02 ± 0.13,0.982 ± 0.055,1 ± 0.038,0.944 ± 0.11,1.006 ± 0.0091,0.998 ± 0.045
F1T0I1 and related entries (UniProt O15027),1.13 ± 0.044,1.15 ± 0.069,1.19 ± 0.067,1.22 ± 0.14,1.22 ± 0.1,1.24 ± 0.1
G5E9C0 and related entries (UniProt Q9HB58),1.11 ± 0.11,1.11 ± 0.13,1.14 ± 0.16,1.23 ± 0.17,1.28 ± 0.14,1.36 ± 0.12
E9PN89 and related entries (UniProt P11142),0.946 ± 0.074,0.991 ± 0.032,0.889 ± 0.053,1.01 ± 0.017,0.919 ± 0.032,0.907 ± 0.033
F8W8W7 and related entries (UniProt O43493),0.994 ± 0.2,1.02 ± 0.4,1 ± 0.2,1.05 ± 0.23,0.942 ± 0.11,0.879 ± 0.26
E7EPN9 and related entries (UniProt Q9Y520),1.05 ± 0.094,1.09 ± 0.076,1.15 ± 0.089,1.3 ± 0.14,1.3 ± 0.08,1.42 ± 0.13
F8W8D3 and related entries (UniProt Q14493),1 ± 0.033,0.9936 ± 0.0089,0.977 ± 0.015,1.02 ± 0.051,0.968 ± 0.068,0.932 ± 0.065
F5H7T0 and related entries (UniProt Q96S38),1.11 ± 0.048,1.1 ± 0.077,0.971 ± 0.11,1.07 ± 0.093,0.951 ± 0.089,1.02 ± 0.039
F2Z2X4 and related entries (UniProt Q9C0E2),1.02 ± 0.092,1.01 ± 0.11,1.01 ± 0.053,0.935 ± 0.11,1.03 ± 0.081,0.997 ± 0.031
E7EMM4 and related entries (UniProt Q13510),0.928 ± 0.066,0.949 ± 0.068,0.924 ± 0.064,0.924 ± 0.043,0.902 ± 0.045,0.929 ± 0.067
F5GXE4 and related entries (UniProt O95260),0.983 ± 0.039,0.973 ± 0.061,0.968 ± 0.037,0.987 ± 0.051,0.97 ± 0.053,0.972 ± 0.039
F6XUP2 and related entries (UniProt O43861),0.999 ± 0.019,0.983 ± 0.1,1.02 ± 0.14,1.03 ± 0.084,1.01 ± 0.11,0.915 ± 0.15
E9PB93 and related entries (UniProt O15514),0.963 ± 0.091,1.03 ± 0.039,1.06 ± 0.017,1 ± 0.043,0.917 ± 0.053,0.885 ± 0.049
E9PC90 and related entries (UniProt P14635),0.983 ± 0.12,1.02 ± 0.038,1.05 ± 0.071,1.06 ± 0.11,1.02 ± 0.054,1.01 ± 0.028
E9PSH8 and related entries (UniProt P07766),1.01 ± 0.044,1 ± 0.017,0.939 ± 0.022,0.995 ± 0.013,0.977 ± 0.036,0.976 ± 0.021
E9PMC9 and related entries (UniProt Q7Z589),1.08 ± 0.09,1.06 ± 0.11,1.13 ± 0.044,1.19 ± 0.22,1.1 ± 0.09,1.21 ± 0.1

# 2 successive records out of the list so far, quoted:
Target,NP40-soluble protein abundance (concentration: 1mM),NP40-soluble protein abundance (concentration: 2mM),NP40-soluble protein abundance (concentration: 4mM),NP40-soluble protein abundance (concentration: 6mM),NP40-soluble protein abundance (concentration: 8mM),NP40-soluble protein abundance (concentration: 10mM)
F2Z2X4 and related entries (UniProt Q9C0E2),1.02 ± 0.092,1.01 ± 0.11,1.01 ± 0.053,0.935 ± 0.11,1.03 ± 0.081,0.997 ± 0.031
E7EMM4 and related entries (UniProt Q13510),0.928 ± 0.066,0.949 ± 0.068,0.924 ± 0.064,0.924 ± 0.043,0.902 ± 0.045,0.929 ± 0.067

# Following part

Target,NP40-soluble protein abundance (concentration: 1mM),NP40-soluble protein abundance (concentration: 2mM),NP40-soluble protein abundance (concentration: 4mM),NP40-soluble protein abundance (concentration: 6mM),NP40-soluble protein abundance (concentration: 8mM),NP40-soluble protein abundance (concentration: 10mM)
E9PRF4 and related entries (UniProt Q15047),1.01 ± 0.051,1.02 ± 0.057,0.99 ± 0.052,1.01 ± 0.064,0.974 ± 0.06,1.01 ± 0.077
F2Z2W7 and related entries (UniProt Q8IZ69),1.03 ± 0.066,1.02 ± 0.05,1.06 ± 0.024,1.04 ± 0.018,1.05 ± 0.022,1.1 ± 0.0026
F5H0F9 and related entries (UniProt Q9UJX4),1.13 ± 0.078,1.04 ± 0.034,1.02 ± 0.045,1 ± 0.12,1.09 ± 0.081,1.03 ± 0.11
E9PIV2 and related entries (UniProt P24001),0.966 ± 0.079,0.98 ± 0.12,0.922 ± 0.097,0.903 ± 0.022,0.813 ± 0.055,0.798 ± 0.18
F6SFZ6 and related entries (UniProt Q99571),0.982 ± 0.2,0.953 ± 0.052,1.01 ± 0.17,0.945 ± 0.09,0.913 ± 0.052,0.917 ± 0.073
F5GX51 and related entries (UniProt Q9Y4F9),1.03 ± 0.038,1.02 ± 0.015,1.02 ± 0.035,0.973 ± 0.049,0.986 ± 0.029,1.02 ± 0.025
E9PJ55 (UniProt Q9NUJ3),1.08 ± 0.15,1.04 ± 0.15,1.05 ± 0.11,1.01 ± 0.13,1.03 ± 0.1,0.999 ± 0.12
F5H7W8 and related entries (UniProt Q96C57),1.1 ± 0.076,1.13 ± 0.077,1.24 ± 0.048,1.33 ± 0.077,1.31 ± 0.06,1.25 ± 0.15
E9PL57 and related entries (UniProt Q15843),0.89 ± 0.16,0.868 ± 0.075,0.806 ± 0.11,0.914 ± 0.098,0.827 ± 0.078,0.763 ± 0.082
E9PLD2 and related entries (UniProt Q9H019),1 ± 0.073,1 ± 0.062,0.955 ± 0.036,1.01 ± 0.093,0.971 ± 0.038,0.937 ± 0.035
F8WET0 and related entries (UniProt Q8IW19),1.18 ± 0.11,1.21 ± 0.28,1.08 ± 0.21,1.17 ± 0.3,1.05 ± 0.2,1.2 ± 0.12
E9PK61 and related entries (UniProt O14681),1 ± 0.047,1.01 ± 0.065,1.04 ± 0.012,1.03 ± 0.027,1.05 ± 0.034,1.09 ± 0.026
E7EPT4 and related entries (UniProt P19404),0.929 ± 0.1,0.918 ± 0.075,0.903 ± 0.074,0.885 ± 0.12,0.91 ± 0.078,0.844 ± 0.072
E9PAV3-2|E9PAV3 and related entries (UniProt Q13765+H0YHX9+F8VZJ2+E9PAV3),0.994 ± 0.073,1.11 ± 0.023,1.12 ± 0.032,1.1 ± 0.089,1.119 ± 0.0068,1.18 ± 0.02
G3XAN4 and related entries (UniProt Q15629),1.02 ± 0.049,1.06 ± 0.051,1.05 ± 0.043,1.09 ± 0.034,1.04 ± 0.036,1.01 ± 0.039
G3V1A6 and related entries (UniProt P57764),1 ± 0.048,0.977 ± 0.03,0.953 ± 0.05,0.941 ± 0.096,1 ± 0.04,0.943 ± 0.0097
